Experimental data reported in PubChem BioAssay AID504834 (National Center for Advancing Translational Sciences (NCATS), 2011).
Screen size: about 320,000 compounds; about 22,000 (6.9%) were called active. This list was built around the results that the source calls inconclusive (neither active nor inactive); the mix of calls is not that of the screen. Calls follow the shape of the dose curve; as a rule, active = well fitted inhibition curve with a large enough effect; inconclusive = small, poorly fitted or top-dose-only effect, or another doubt; inactive = no such curve, though single readings can be large or run the other way. A potency beside an inconclusive call is a rough fit, not a confirmed value.
% is scaled to controls: 0 for no effect and ±100 for the full control effect; potency is read from the fitted curve at half-maximal effect.

Experiment: Primary qHTS for delayed death inhibitors of the malarial parasite plastid, 96 hour incubation
Conditions: P. falciparum luciferase reporter growth; series mostly up to 28.7 µM; activity change, negative = inhibition: at the top concentration
Outline: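 Delayed-death screen, second-generation endpoint: infected erythrocytes, 2% hematocrit, 0.05% parasitemia final; 96 hours at 37 C, 5% CO2; luciferase detection reagent; luminescence decrease equals reduced growth.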
With `CCCCn1c(NCc2ccccn2)nc2ccccc21` the Potency was inconclusive: 11.7 µM [inhibitor, single point].
For `COc1ccc(S(=O)(=O)N(CC(=O)NCC2CCCO2)C2CCCCC2)cc1OC` (configuration not stated), the Potency was inconclusive: 10.4 µM [inhibitor, partial curve].
In the case of `CN1CCCN(Cc2ccc(Cl)cc2Cl)CC1`, the “activity change, negative = inhibition” value is reported as inactive: -26.3%.
For `CCOc1ccccc1N1CCN(C(=S)Nc2ccc(S(=O)(=O)Nc3ncccn3)cc2)CC1`, the Potency was inconclusive: 16.5 µM [inhibitor, single point].
With `Cc1ccc(S(=O)(=O)c2nnn3c2nc(NC2CCN(Cc4ccccc4)CC2)c2ccccc23)cc1C` the Potency was inconclusive: 3.29 µM [inhibitor, partial curve].
With `O=C(CCCn1c(=S)[nH]c2ccccc2c1=O)NCc1ccco1` the Potency was inconclusive: 7.38 µM [inhibitor, partial curve].
For `Cn1c(C(=O)N2CCC(C(=O)N3CCOCC3)CC2)cc2sccc21`, the Potency was active: 11.7 µM.
With `COc1cc(OC)c(OC)cc1CNc1cc(C)ccc1OC` the Potency was inconclusive: 18.5 µM [inhibitor, single point].
For `COC(=O)c1ccc(NS(=O)(=O)c2ccc(Cl)cc2)o1`, the Potency was inconclusive: 9.28 µM [inhibitor, single point].
With `Cc1cc(-c2ccc(F)cc2)nc2cc(C(N)=O)nn12` the Potency was inconclusive: 16.5 µM [inhibitor, single point].
In the case of `COc1ccc(NC(=O)COc2coc(CN3CCN(c4ccccc4)CC3)cc2=O)cc1`, the Potency is reported as inconclusive: 2.08 µM [inhibitor, partial curve, poor fit].
For `Cc1cc(CCCCCCCCc2cc(C)cc(=O)o2)oc(=O)c1`, the Potency was inconclusive: 7.38 µM [inhibitor, partial curve, poor fit].
In the case of `O=C(N[C@H]1CCCCNC1=O)c1cc(COc2ccc(F)cc2F)on1`, the “activity change, negative = inhibition” value is reported as inactive: -22.8%.
In the case of `CCc1ccc(NC(=S)N2CCNC(=O)C2CC(=O)OC)cc1` (configuration not stated), the “activity change, negative = inhibition” value is reported as inactive: 0%.
With `C=CCNC(=O)[C@H]1N2C(=O)c3ccccc3C2SC1(C)C` (some centres not stated) the “activity change, negative = inhibition” value was inactive: 13.1%.
For `CCOC(=O)N1CCN(C(=O)COc2ccccc2[N+](=O)[O-])CC1`, the “activity change, negative = inhibition” value was inactive: 0.359%.
With `O=C1N/C(=C/c2cccn2-c2ccc(F)cc2)C(=O)N1Cc1ccccc1F` the Potency was inconclusive: 3.29 µM [inhibitor, full curve, poor fit].
In the case of `O=C(/C=C/c1ccc(Cl)c(C(F)(F)F)c1)N1CCN(c2ccccn2)CC1`, the “activity change, negative = inhibition” value is reported as inactive: 8.21%.
For `O=C(CCc1nc2ccccc2[nH]1)Nc1ccccc1`, the “activity change, negative = inhibition” value was inactive: -17.7%.
With `CCCCCCCCCCCCCCCC[n+]1cccc2ccccc21` the Potency was inconclusive: 0.329 µM [inhibitor, full curve, poor fit].
With `CCc1ccccc1NC(=O)Cn1ccn(-c2ccc(OC)cc2)c(=O)c1=O` the Potency was inconclusive: 1.17 µM [inhibitor, full curve].
For `O=c1cc(CSc2ccccn2)[nH]c(=O)[nH]1`, the Potency was inconclusive: 11.7 µM [inhibitor, single point].
With `O=[N+]([O-])c1cccc(-c2nc(-c3ccccn3)no2)c1` the “activity change, negative = inhibition” value was inactive: 284%.
In the case of `FC(F)(F)c1ccc(N2CCN(Cc3ccc4c(c3)OCO4)CC2)nc1`, the “activity change, negative = inhibition” value is reported as inactive: 27.1%.
With `N#CCCN(C(=O)COC(=O)CCN=C1NS(=O)(=O)c2ccccc21)c1ccc(F)cc1` the “activity change, negative = inhibition” value was inactive: 9.59%.
In the case of `CCOc1ccc(/C=N/N2CCN(Cc3ccccc3)CC2)cc1`, the Potency is reported as active: 0.738 µM.
With `CCc1noc(C)c1C(=O)Nc1nc(-c2ccc(NC(C)=O)cc2)cs1` the Potency was inconclusive: 11.7 µM [inhibitor, single point].
With `COCCSc1nnc(NC(=O)C2CCCCC2)s1` the Potency was inconclusive: 0.522 µM [inhibitor, full curve, poor fit].
With `COc1cc(C)c(Cl)cc1S(=O)(=O)N1CCCC1` the Potency was inconclusive: 18.5 µM [inhibitor, single point].
With `CC1N(C)c2cc(NC(=O)c3cccs3)c(P(=O)(Nc3ccc([N+](=O)[O-])cc3)N3CCOCC3)cc2C1(C)C` (configuration not stated) the Potency was inconclusive: 18.5 µM [inhibitor, single point].
For `COC(=O)c1c(C)nc(C)c(C(=O)OC)c1-c1cccs1`, the Potency was inconclusive: 11.7 µM [inhibitor, partial curve, poor fit].
In the case of `Cc1occc1C(=O)Nc1cccc(Cl)c1Cl`, the “activity change, negative = inhibition” value is reported as inactive: 91.9%.
In the case of `CC(=O)Nc1ccc(C(=O)COC(=O)CCN2C(=O)C3CC=CCC3C2=O)cc1` (configuration not stated), the “activity change, negative = inhibition” value is reported as inactive: 0.459%.
With `O=C(Nc1ccc(Br)cc1)c1cccc(NC(=O)C2C3CC4OC(=O)C2C4C3)c1` (configuration not stated) the Potency was inconclusive: 18.5 µM [inhibitor, single point].
For `Cc1nn(-c2ccccc2)c(N)c1Sc1ccc([N+](=O)[O-])cc1`, the Potency was inconclusive: 10.4 µM [inhibitor, single point].
For `O=C(CNC(c1ccccc1)c1ccccc1)NCc1ccccc1Cl`, the Potency was inconclusive: 11.7 µM [inhibitor, single point].
In the case of `CC(=O)c1cccc(NC(=S)NC(=O)C(C)C)c1`, the “activity change, negative = inhibition” value is reported as inactive: 50.4%.
With `CC(C)N1CCc2c(sc(NC(=O)c3ccc(S(=O)(=O)N4CCCCC4C)cc3)c2C(N)=O)C1` (configuration not stated) the Potency was inconclusive: 11.7 µM [inhibitor, single point].
For `Cc1c(C(=O)N2CCOCC2)sc2ncnc(N3CCc4ccccc4C3)c12`, the “activity change, negative = inhibition” value was inactive: 59.1%.
For `Cc1c([N+](=O)[O-])c([N+](=O)[O-])nn1CC(=O)N1CCOCC1`, the Potency was inconclusive: 20.8 µM [inhibitor, partial curve, poor fit].
With `COc1cccc(OC)c1C(=O)NC(=S)Nc1ccc(N2CCOCC2)c(Cl)c1` the Potency was inconclusive: 18.5 µM [inhibitor, single point].
With `CCSc1nc2n(n1)C(c1cccc(F)c1)C1=C(CCCC1=O)N2` (configuration not stated) the Potency was inconclusive: 10.4 µM [inhibitor, partial curve].
With `CC(C)c1ccc(/C=C/C(=O)NNC(=O)c2cccnc2)cc1` the Potency was inconclusive: 0.0928 µM [inhibitor, full curve].
For `Cc1ccc(O)c(NC(=O)CCC2CCCCC2)c1`, the Potency was active: 13.1 µM.
For `COc1ccc(C2C(C#N)=C(N)Oc3cccc(O)c32)cc1` (configuration not stated), the “activity change, negative = inhibition” value was inactive: -13.1%.
In the case of `Cn1c(SCCN2CCCCC2)nnc1-c1ccccc1Br`, the “activity change, negative = inhibition” value is reported as inactive: -1.28%.
With `COc1cc(/C=C2/SC(=S)N(CCC(=O)Nc3ccc(C(=O)O)cc3)C2=O)cc(OC)c1OC` the Potency was inconclusive: 11.7 µM [inhibitor, single point].
